{
  "source": "the supplement of paper PMC8728848",
  "binders": {"B1": {"name": "Pwp6 (Candida glabrata) (protein)", "chain": "MGSSHHHHHHSSGLVPRGSHMASANLPKLTNICQIPDNVKKTSGFKGEIRRIGLFPPGGDYTYLLKFPSTGSTASDTISLTTKPQLSTSGWFPSLFGHTYFIKADLLVYMVAYFVPTETGEYTFKLVNSDDAAVMYVGNPSAFPCGSIDTWPEPRKEDINVCDKISASTKLYMEKGLAYPVRLVWYNGGGDGQFNAQFIDPSGTTHTDWNGYVWQYDACTDCDYK"}},
  "experiment_in_all_cases": "glycan array binding signal (z-score within array); higher = stronger binding",
  "conditions_in_all_cases": "glycan notation: IUPAC condensed, linker removed",
  "key": {"Fuc(a1-2)Gal": {"target": "Fuc(a1-2)Gal", "in_short": "(§1)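 The binding signal is a Z-score computed within each array. Data were drawn from 3228 arrays in the Consortium for Functional Glycomics database, restricted to those with a known protein sequence. Scores were averaged over arrays of the same protein sequence at different concentrations or buffers, and over linkers, and negative values can be taken as non-binding.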"}, "Fuc(a1-2)Gal(b1-3)GalNAc": {"target": "Fuc(a1-2)Gal(b1-3)GalNAc", "in_short": "as §1"}, "[1]": {"target": "Fuc(a1-2)Gal(b1-3)GalNAc(a1-3)[Fuc(a1-2)]Gal(b1-4)Glc", "in_short": "as §1"}, "[2]": {"target": "Fuc(a1-2)Gal(b1-3)GalNAc(a1-3)[Fuc(a1-2)]Gal(b1-4)GlcNAc", "in_short": "as §1"}, "[3]": {"target": "Fuc(a1-2)Gal(b1-3)GalNAc(b1-3)Gal", "in_short": "as §1"}, "[4]": {"target": "Fuc(a1-2)Gal(b1-3)GalNAc(b1-3)Gal(a1-4)Gal(b1-4)Glc", "in_short": "as §1"}, "[5]": {"target": "Fuc(a1-2)Gal(b1-3)GalNAc(b1-4)[Neu5Ac(a2-3)]Gal(b1-4)Glc", "in_short": "as §1"}, "Fuc(a1-2)Gal(b1-3)GlcNAc": {"target": "Fuc(a1-2)Gal(b1-3)GlcNAc", "in_short": "as §1"}, "[6]": {"target": "Fuc(a1-2)Gal(b1-3)GlcNAc(b1-2)Man(a1-3)[Fuc(a1-2)Gal(b1-3)GlcNAc(b1-2)Man(a1-6)]Man(b1-4)GlcNAc(b1-4)GlcNAc", "in_short": "as §1"}, "[7]": {"target": "Fuc(a1-2)Gal(b1-3)GlcNAc(b1-2)Man(a1-3)[Fuc(a1-2)Gal(b1-3)GlcNAc(b1-2)Man(a1-6)]Man(b1-4)GlcNAc(b1-4)[Fuc(a1-6)]GlcNAc", "in_short": "as §1"}, "[8]": {"target": "Fuc(a1-2)Gal(b1-3)GlcNAc(b1-3)Gal(b1-4)Glc", "in_short": "as §1"}, "[9]": {"target": "Fuc(a1-2)Gal(b1-3)GlcNAc(b1-3)GalNAc", "in_short": "as §1"}, "[10]": {"target": "Fuc(a1-2)Gal(b1-3)GlcNAc(b1-3)[Fuc(a1-2)Gal(b1-3)GlcNAc(b1-6)]GalNAc", "in_short": "as §1"}, "[11]": {"target": "Fuc(a1-2)Gal(b1-3)GlcNAc(b1-3)[Gal(b1-4)GlcNAc(b1-6)]Gal(b1-4)Glc", "in_short": "as §1"}, "[12]": {"target": "Fuc(a1-2)Gal(b1-3)GlcNAc(b1-3)[Neu5Ac(a2-6)Gal(b1-4)GlcNAc(b1-6)]Gal(b1-4)Glc", "in_short": "as §1"}, "[13]": {"target": "Fuc(a1-2)Gal(b1-3)GlcNAc6S", "in_short": "as §1"}, "[14]": {"target": "Fuc(a1-2)Gal(b1-3)[Fuc(a1-4)]GlcNAc", "in_short": "as §1"}, "[15]": {"target": "Fuc(a1-2)Gal(b1-3)[Fuc(a1-4)]GlcNAc(b1-2)Man(a1-3)[Fuc(a1-2)Gal(b1-3)[Fuc(a1-4)]GlcNAc(b1-2)Man(a1-3)]Man(b1-4)GlcNAc(b1-4)GlcNAc", "in_short": "as §1"}, "[16]": {"target": "Fuc(a1-2)Gal(b1-3)[Fuc(a1-4)]GlcNAc(b1-2)Man(a1-3)[Fuc(a1-2)Gal(b1-3)[Fuc(a1-4)]GlcNAc(b1-2)Man(a1-6)]Man(b1-4)GlcNAc(b1-4)[Fuc(a1-6)]GlcNAc(b1-4)[Fuc(a1-6)]GlcNAc", "in_short": "as §1"}, "[17]": {"target": "Fuc(a1-2)Gal(b1-3)[Fuc(a1-4)]GlcNAc(b1-3)[Fuc(a1-3)[Gal(b1-4)]GlcNAc(b1-6)]Gal(b1-4)Glc", "in_short": "as §1"}, "[18]": {"target": "Fuc(a1-2)Gal(b1-3)[Fuc(a1-4)]GlcNAc(b1-3)[Gal(b1-4)GlcNAc(b1-6)]Gal(b1-4)Glc", "in_short": "as §1"}, "Fuc(a1-2)Gal(b1-4)Glc": {"target": "Fuc(a1-2)Gal(b1-4)Glc", "in_short": "as §1"}, "Fuc(a1-2)Gal(b1-4)Glc6S": {"target": "Fuc(a1-2)Gal(b1-4)Glc6S", "in_short": "as §1"}, "Fuc(a1-2)Gal(b1-4)GlcNAc": {"target": "Fuc(a1-2)Gal(b1-4)GlcNAc", "in_short": "as §1"}, "[19]": {"target": "Fuc(a1-2)Gal(b1-4)GlcNAc(b1-2)Man", "in_short": "as §1"}, "[20]": {"target": "Fuc(a1-2)Gal(b1-4)GlcNAc(b1-2)Man(a1-3)[Fuc(a1-2)Gal(b1-4)GlcNAc(b1-2)Man(a1-6)]Man(b1-4)GlcNAc(b1-4)GlcNAc", "in_short": "as §1"}, "[21]": {"target": "Fuc(a1-2)Gal(b1-4)GlcNAc(b1-2)Man(a1-3)[Fuc(a1-2)Gal(b1-4)GlcNAc(b1-2)Man(a1-6)]Man(b1-4)GlcNAc(b1-4)[Fuc(a1-6)]GlcNAc", "in_short": "as §1"}, "[22]": {"target": "Fuc(a1-2)Gal(b1-4)GlcNAc(b1-2)[Fuc(a1-2)Gal(b1-4)GlcNAc(b1-4)]Man(a1-3)[Fuc(a1-2)Gal(b1-4)GlcNAc(b1-2)Man(a1-6)]Man(b1-4)GlcNAc(b1-4)GlcNAc", "in_short": "as §1"}, "[23]": {"target": "Fuc(a1-2)Gal(b1-4)GlcNAc(b1-3)Gal(b1-4)GlcNAc", "in_short": "as §1"}, "[24]": {"target": "Fuc(a1-2)Gal(b1-4)GlcNAc(b1-3)Gal(b1-4)GlcNAc(b1-2)Man(a1-3)[Fuc(a1-2)Gal(b1-4)GlcNAc(b1-3)Gal(b1-4)GlcNAc(b1-2)Man(a1-6)]Man(b1-4)GlcNAc(b1-4)GlcNAc", "in_short": "as §1"}},
  "note": "The other results are listed elsewhere or left out.",
  "data": [
    {"binder": "B1", "values": [
      {"measurement": "glycan array binding signal (z-score)", "setting": "Fuc(a1-2)Gal", "value": -0.81},
      {"measurement": "glycan array binding signal (z-score)", "setting": "Fuc(a1-2)Gal(b1-3)GalNAc", "value": -0.648},
      {"measurement": "glycan array binding signal (z-score)", "setting": "[1]", "value": -0.553},
      {"measurement": "glycan array binding signal (z-score)", "setting": "[2]", "value": -0.296},
      {"measurement": "glycan array binding signal (z-score)", "setting": "[3]", "value": -0.077},
      {"measurement": "glycan array binding signal (z-score)", "setting": "[4]", "value": -0.362},
      {"measurement": "glycan array binding signal (z-score)", "setting": "[5]", "value": -0.318},
      {"measurement": "glycan array binding signal (z-score)", "setting": "Fuc(a1-2)Gal(b1-3)GlcNAc", "value": -0.655},
      {"measurement": "glycan array binding signal (z-score)", "setting": "[6]", "value": 1.22},
      {"measurement": "glycan array binding signal (z-score)", "setting": "[7]", "value": -0.04},
      {"measurement": "glycan array binding signal (z-score)", "setting": "[8]", "value": -0.524},
      {"measurement": "glycan array binding signal (z-score)", "setting": "[9]", "value": -0.639},
      {"measurement": "glycan array binding signal (z-score)", "setting": "[10]", "value": 0.205},
      {"measurement": "glycan array binding signal (z-score)", "setting": "[11]", "value": -0.03},
      {"measurement": "glycan array binding signal (z-score)", "setting": "[12]", "value": -0.443},
      {"measurement": "glycan array binding signal (z-score)", "setting": "[13]", "value": -0.35},
      {"measurement": "glycan array binding signal (z-score)", "setting": "[14]", "value": -0.605},
      {"measurement": "glycan array binding signal (z-score)", "setting": "[15]", "value": 0.391},
      {"measurement": "glycan array binding signal (z-score)", "setting": "[16]", "value": 0.128},
      {"measurement": "glycan array binding signal (z-score)", "setting": "[17]", "value": -0.643},
      {"measurement": "glycan array binding signal (z-score)", "setting": "[18]", "value": -0.19},
      {"measurement": "glycan array binding signal (z-score)", "setting": "Fuc(a1-2)Gal(b1-4)Glc", "value": -0.645},
      {"measurement": "glycan array binding signal (z-score)", "setting": "Fuc(a1-2)Gal(b1-4)Glc6S", "value": -0.477},
      {"measurement": "glycan array binding signal (z-score)", "setting": "Fuc(a1-2)Gal(b1-4)GlcNAc", "value": -0.848},
      {"measurement": "glycan array binding signal (z-score)", "setting": "[19]", "value": -0.012},
      {"measurement": "glycan array binding signal (z-score)", "setting": "[20]", "value": -0.061},
      {"measurement": "glycan array binding signal (z-score)", "setting": "[21]", "value": 0.09},
      {"measurement": "glycan array binding signal (z-score)", "setting": "[22]", "value": 0.242},
      {"measurement": "glycan array binding signal (z-score)", "setting": "[23]", "value": -0.704},
      {"measurement": "glycan array binding signal (z-score)", "setting": "[24]", "value": 1.78}
    ]}
  ]
}
